Measured values published in PubChem BioAssay AID1508600 (Functional Genomics Laboratory (NCATS/FGL), 2020).
Among all 53,000 sequences or so, about 3,700 (7%) were called active.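 Rule for the calls: active = gene knockdowns whose robust z-score for IL-1 alpha signal is at least 2 or at most -2, so actives lie on both sides; inactive = the rest.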 Some of the results follow.

Assay: Components of the Cytosolic LPS Sensing Pathway: Gene Identification via Genome-wide siRNA Screen;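 note: robust z of the log signal after scaling to non-targeting control siRNA wells of the plate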
Conditions: RAW264.7 macrophages, IL-1a HTRF, actives lie on both sides, screened at 100 nM (by protocol), cells primed 5 h with Pam3CSK4 first
How it was run: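 Using IL-1a HTRF as read-out, the screen measured release from RAW264.7 cells after 48h siRNA knockdown (100 nM), 5 h Pam3CSK4 priming and 24 h cytosolic LipidA. Values were expressed relative to negative-control wells as robust z-scores.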

Sequence | z-score
GACCGAGUUCAAAGCGAACTT against Atp5e | inactive: 0.323
GGCUGUCAUGCAUUAUAUGTT against Tfeb | inactive: -0.535
CCGGAAGAUCAAUAUAAGATT against Crisp2 | inactive: 1.33
GGCUAUUGUUUCAUCCUGATT against Emp1 | inactive: -1.25
GGAACUUUUUAAGAUGCGUTT against Ranbp1 | inactive: -0.36
GGAACUACUUUGAGAGCACTT against Arl2 | inactive: 0.209
CCAAAGGAAUGCGUUUUACTT against Msh2 | inactive: 1.83
GGCAGACUCUGCCUACUUATT against Utf1 | inactive: 1.01
GGAUGGACAACAUCAAACATT against Ltbp2 | inactive: 0.678
GGUCACGGAACAAAAAACCTT against Tnrc6b | inactive: -0.119
GGAGAAAACACAAUGUCUUTT against Limd1 | inactive: 0.441
GCUGACAAAGUCGUUUCCUTT against Olfr732 | inactive: -0.74
CGAGUAUGCCGAAAACACUTT against Car6 | inactive: 0.41
CCAGUGAUUAAUGUGACCUTT against BC048679 | inactive: -1.9
GGCCAGCUCUCUUUUGCUATT against Cflar | active: 2.5
GGGUGCGGAAAUUCAUUAATT against Mpv17l2 | inactive: 0.803
GGAAUAAAGUGUUGUGUCATT against Wfdc15b | inactive: -0.118
CCUGAAAGAUGCUCUCUAUTT against Inpp4b | active: 4.27
GGUGGAAUUUACAUAAUGATT against Igsf11 | inactive: 0.839
GGCCAACAAGAUUCUAGAGTT against Slc44a2 | inactive: 1.34
GGUGUUAGAAGUCAACGGUTT against Pard6b | inactive: 0.482
GGGCAAACUCAUUUUUUGATT against F10 | inactive: -0.157

Given with tabs: entries from further up.
Sequence	z-score
CCUGAAAGAUGCUCUCUAUTT against Inpp4b	active: 4.27
GGUGGAAUUUACAUAAUGATT against Igsf11	inactive: 0.839

Going on with the list.

Sequence | z-score
CCACAGAACAGCCAUCAUGTT against Ankrd7 | inactive: 0.0949
GGAAUUCUCUCAGCAGAAGTT against 1110038F14Rik | active: -2.17
GGGUCUUAUGGAAGUGUUUTT against Stk3 | active: 7.27
GGACGCAUGAUGUGGGUUCTT against Tmem41a | inactive: -0.626
GGCUGUUCAAAAAUUUCGGTT against Sox17 | inactive: -0.261
CCCUAGGGUGAUGAAGCAUTT against Ckmt2 | inactive: -0.984
CCGAAUUUCCAAAAAUGCATT against Foxd3 | inactive: -0.244
CCUAAACGUGCACAUUUUATT against Ifitm10 | inactive: -0.347
GGUUACCUCCACCAGAUCATT against Avpi1 | inactive: -0.326
CCAUAACCAACGUGUUCGUTT against Adrb3 | inactive: -0.273
GCUAACAAAUGUCAGCAUGTT against Popdc3 | inactive: 0.319
GCGUAUCUGAUUGACAGAGTT against Kctd2 | inactive: 1.62
GCCAAAGAUUAUCGAGUGUTT against Klhdc8a | inactive: -0.594
GGAUGACUUUGAGUGUGUGTT against Ciao1 | inactive: -0.55
CCUUAAAACUUUCUGGUUGTT against Akirin1 | inactive: -0.449
GCUAUUGAGUCGUGAGACUTT against Apoc3 | inactive: -0.869
GGUUUGACUAACUUUCCUUTT against Fbxl15 | inactive: 0.198
GCUAUGAAGCAAUUGUGGATT against Fasn | inactive: -0.527
GCUCAAAAAACCGAAAUGATT against Cd274 | inactive: -1.03
GGAGAAGAAACUGAACCUGTT against Ppan | inactive: -0.835
CCUAUGUAUGUCAACAUACTT against 1700028P14Rik | inactive: -0.13
GGCUGAAGUUCAUGAUGGCTT against Cd209d | inactive: 1.7

Single values from the entries so far:
GGCUGUUCAAAAAUUUCGGTT against Sox17 – z-score: inactive: -0.261
CCAAAGGAAUGCGUUUUACTT against Msh2 – z-score: inactive: 1.83
GGUCACGGAACAAAAAACCTT against Tnrc6b – z-score: inactive: -0.119
GGAACUACUUUGAGAGCACTT against Arl2 – z-score: inactive: 0.209
GGAACUUUUUAAGAUGCGUTT against Ranbp1 – z-score: inactive: -0.36

Next records.

Sequence | z-score
GCACGAUUUAGACACCAAGTT against Mtif3 | inactive: 0.195
GGAGGAGAUCGUGAUCUGCTT against Ubqln4 | inactive: 1.2
CCAUUAGGAUGACCUCCAUTT against Slc38a3 | inactive: -0.698
GUGGAUUAGGGAAUUUCAUTT against Mrgprb1 | inactive: 1.84
GGAGAUGCGAGUACAACUGTT against Ermn | inactive: 0.479
GGUCAAGCAAGUGUUGGUUTT against Gart | inactive: -0.0147
GGUACAUCUAUUUCUUGUUTT against Ncam2 | inactive: -1.2
GGCAACUUGGGAGUUUCACTT against Kcnab1 | inactive: 1.41
GGUACACAGCAGUGGUCAUTT against Drd3 | inactive: -0.707
GGAAACAAAAAGAAUGCUGTT against Apex1 | inactive: 0.697
GGGUGACGAUAUCGAAAUGTT against Vstm2b | inactive: -1.59
CCUUCAACUCCUCACUUCCTT against H2-D1 | inactive: 0.493
GGUUGUUAGAGGUAAUUUGTT against Zfp128 | inactive: 0.484
GGUCGAGACUCCAUCAUAATT against Wdr48 | inactive: -1.46
GGAACAGAUAAAGAGGGAATT against Zfp326 | inactive: -0.735
GGCCCACGUCCUGUACAUUTT against Tdrd1 | active: 3.38
GCUCUAGUUCUGUAAAGUGTT against D630004N19Rik | inactive: -0.858
CCGGAAAAUGCUACUGAAATT against Pcdhb10 | inactive: -0.662
GGGUUAUAGGUGUGUGUGCTT against Gemin6 | inactive: -0.389
GGCAUUCUCCACGUGCUCUTT against Olfr273 | inactive: -1.35
GGGCUCGAAUCCAUCACAGTT against Pcdhb6 | inactive: 0.0695
CGUGUAAAAGCCGGAUUGATT against 1500015L24Rik | inactive: -0.00617

Sequence | z-score
GGAAGUCUCAGACCACAACTT against Ech1 | inactive: -0.581
GCAUUCUGAAGCUUCCAUCTT against Olfr1112 | inactive: 0.577
GGACUUGACUAGACUUUCUTT against Cops7b | inactive: 0.157
GGAAAUGUUAUCUUGGAAUTT against Zfand1 | inactive: 0.623
GCACGUACUGUUCUAGAAGTT against Kcng4 | inactive: 1.48
CCUAACCAUCGACUUCUUCTT against Wfs1 | inactive: -0.189
CGAAAUUGCUGACUCAGAATT against Arl6ip6 | inactive: 0.549
GGCUAAAAAUAACAUCACCTT against Gabra2 | inactive: -0.164
GGAUUUUGCUGUUUUGGAATT against Dsc1 | inactive: 0.41
GCCGCUUCCAUUUUCUAUATT against Hic1 | inactive: 0.844
GGAAGAACCCAGCAAUGUCTT against Lzts2 | inactive: 0.0445
GCCAUCUACGUGUCAUAGCTT against Siah1b | inactive: 0.345
GCUAUAAAAAGAGCUCCGCTT against Cox8b | inactive: 0.554
GGCCGCUUUUAUUUAUAAUTT against Taf2 | inactive: -0.637
CCCAAUAGUUUCUACUACUTT against Mkks | inactive: -0.756
GCAUCGGCUAGUUCAGCCATT against Trim67 | inactive: 0.498
GGAGCACAGUCUCAUGAAUTT against A130014H13Rik | inactive: -1.44
GGUGACGAUACAGAAAGAGTT against Zfp523 | inactive: -1.47
GGUUGACGCGCAACAAAAUTT against Gp5 | inactive: -1.41
GGCAAUCCAGUUAUCCCAGTT against Prl4a1 | inactive: -1.08
GGAGCUAGCUGAGAUUUUCTT against Tnnc2 | inactive: 0.68
GGAUACCUCAGUGACUACGTT against Scrt1 | inactive: 0.418

Sequence | z-score
GGACAAUGGGAACAUGUAATT against Rnf185 | inactive: 0.858
GCUGCCAAUGAACAAACCATT against Prr27 | inactive: -0.757
GGGCUUAAGGAAUAAACCATT against Phtf2 | inactive: -0.317
CCAUGGGAUAUGAUUUACATT against Phf11a | active: 3.49
GGAAUGCUGAAGAAUUUUGTT against Ssu2 | inactive: 0.439
GCAACAGGUUCGUGUAACCTT against Cavin4 | inactive: 0.079
GCUAUAAAGGUGGUAACACTT against Col7a1 | inactive: 0.078
GCUAGAAGACAAUUACCUGTT against Fam160a2 | inactive: 0.688
GGAUUGUCAAUUCUUCCCUTT against Clca4a | inactive: -1.15
CUUACAGCCCUUAUUGGAGTT against Olfr1205 | inactive: 0.31
GGCUAUAGUAGGUCUUUCATT against Arhgap1 | inactive: 0.214
CCAUUCCUUAAAAGAGCAUTT against Lce1g | inactive: 1.07
GGAAGUGUAUGAUCUCAUGTT against Tyro3 | inactive: 0.495
CGUACAUCAGAAUGUUAAUTT against Fkbp4 | inactive: 1.46
GGGACAUGAGUUUUAAAAUTT against Dazl | inactive: -0.736
GGUACAUUAACUGACUUGGTT against Sspo | inactive: -0.00729
GGACUAUCCAACCUCCUAGTT against Cd47 | inactive: -1.33
GCAAUAUGCGGAUUUUACCTT against Mtbp | inactive: -0.162
GGGACCUAAUCAAUUGUUGTT against Fbxo3 | inactive: 0.441
